Experimental findings from publication PMC9499541, “Ait1 regulates TORC1 signaling and localization in budding yeast” (eLife, 2022) are described below.

Sequences of proteins named here, by UniProt entry; tags and fusion partners are left off.
UniProt P38873: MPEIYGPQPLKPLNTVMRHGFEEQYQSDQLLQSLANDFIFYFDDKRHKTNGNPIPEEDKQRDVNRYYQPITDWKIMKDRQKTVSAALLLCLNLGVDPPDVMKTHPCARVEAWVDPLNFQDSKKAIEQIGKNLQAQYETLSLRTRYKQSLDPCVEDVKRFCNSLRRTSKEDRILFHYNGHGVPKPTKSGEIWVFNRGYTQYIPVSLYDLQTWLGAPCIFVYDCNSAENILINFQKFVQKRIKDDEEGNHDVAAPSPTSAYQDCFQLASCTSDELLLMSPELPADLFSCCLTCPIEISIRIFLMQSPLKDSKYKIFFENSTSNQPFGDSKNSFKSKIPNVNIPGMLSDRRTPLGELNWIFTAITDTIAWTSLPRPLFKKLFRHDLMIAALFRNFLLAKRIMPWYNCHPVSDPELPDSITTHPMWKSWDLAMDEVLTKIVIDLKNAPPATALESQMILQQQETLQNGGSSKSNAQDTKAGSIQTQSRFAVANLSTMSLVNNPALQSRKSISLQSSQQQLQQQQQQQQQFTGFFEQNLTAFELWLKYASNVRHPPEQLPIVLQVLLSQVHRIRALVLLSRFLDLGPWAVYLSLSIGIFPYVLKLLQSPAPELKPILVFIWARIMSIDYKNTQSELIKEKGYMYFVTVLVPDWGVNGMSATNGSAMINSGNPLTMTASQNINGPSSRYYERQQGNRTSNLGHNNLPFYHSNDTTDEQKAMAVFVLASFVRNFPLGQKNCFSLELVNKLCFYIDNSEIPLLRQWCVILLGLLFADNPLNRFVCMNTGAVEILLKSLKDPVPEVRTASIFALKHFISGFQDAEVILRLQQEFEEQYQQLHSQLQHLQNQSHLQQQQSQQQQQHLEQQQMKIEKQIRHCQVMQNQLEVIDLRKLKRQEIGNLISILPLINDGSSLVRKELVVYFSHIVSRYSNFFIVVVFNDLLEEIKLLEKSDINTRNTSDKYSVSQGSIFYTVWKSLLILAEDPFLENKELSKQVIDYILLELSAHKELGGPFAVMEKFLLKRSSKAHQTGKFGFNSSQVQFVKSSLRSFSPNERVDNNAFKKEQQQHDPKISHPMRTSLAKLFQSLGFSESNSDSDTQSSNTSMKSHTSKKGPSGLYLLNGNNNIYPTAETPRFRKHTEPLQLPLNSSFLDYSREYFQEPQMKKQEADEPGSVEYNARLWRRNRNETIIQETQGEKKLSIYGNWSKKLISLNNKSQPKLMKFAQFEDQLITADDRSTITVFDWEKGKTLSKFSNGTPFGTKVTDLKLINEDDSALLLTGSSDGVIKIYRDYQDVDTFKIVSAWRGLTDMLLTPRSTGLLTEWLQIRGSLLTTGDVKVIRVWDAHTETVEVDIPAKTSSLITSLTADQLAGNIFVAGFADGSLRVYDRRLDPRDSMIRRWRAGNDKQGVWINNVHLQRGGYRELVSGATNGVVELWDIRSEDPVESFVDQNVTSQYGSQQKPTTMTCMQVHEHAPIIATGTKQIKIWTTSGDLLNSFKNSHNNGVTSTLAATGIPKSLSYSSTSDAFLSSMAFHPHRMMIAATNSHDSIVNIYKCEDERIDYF
UniProt P35169: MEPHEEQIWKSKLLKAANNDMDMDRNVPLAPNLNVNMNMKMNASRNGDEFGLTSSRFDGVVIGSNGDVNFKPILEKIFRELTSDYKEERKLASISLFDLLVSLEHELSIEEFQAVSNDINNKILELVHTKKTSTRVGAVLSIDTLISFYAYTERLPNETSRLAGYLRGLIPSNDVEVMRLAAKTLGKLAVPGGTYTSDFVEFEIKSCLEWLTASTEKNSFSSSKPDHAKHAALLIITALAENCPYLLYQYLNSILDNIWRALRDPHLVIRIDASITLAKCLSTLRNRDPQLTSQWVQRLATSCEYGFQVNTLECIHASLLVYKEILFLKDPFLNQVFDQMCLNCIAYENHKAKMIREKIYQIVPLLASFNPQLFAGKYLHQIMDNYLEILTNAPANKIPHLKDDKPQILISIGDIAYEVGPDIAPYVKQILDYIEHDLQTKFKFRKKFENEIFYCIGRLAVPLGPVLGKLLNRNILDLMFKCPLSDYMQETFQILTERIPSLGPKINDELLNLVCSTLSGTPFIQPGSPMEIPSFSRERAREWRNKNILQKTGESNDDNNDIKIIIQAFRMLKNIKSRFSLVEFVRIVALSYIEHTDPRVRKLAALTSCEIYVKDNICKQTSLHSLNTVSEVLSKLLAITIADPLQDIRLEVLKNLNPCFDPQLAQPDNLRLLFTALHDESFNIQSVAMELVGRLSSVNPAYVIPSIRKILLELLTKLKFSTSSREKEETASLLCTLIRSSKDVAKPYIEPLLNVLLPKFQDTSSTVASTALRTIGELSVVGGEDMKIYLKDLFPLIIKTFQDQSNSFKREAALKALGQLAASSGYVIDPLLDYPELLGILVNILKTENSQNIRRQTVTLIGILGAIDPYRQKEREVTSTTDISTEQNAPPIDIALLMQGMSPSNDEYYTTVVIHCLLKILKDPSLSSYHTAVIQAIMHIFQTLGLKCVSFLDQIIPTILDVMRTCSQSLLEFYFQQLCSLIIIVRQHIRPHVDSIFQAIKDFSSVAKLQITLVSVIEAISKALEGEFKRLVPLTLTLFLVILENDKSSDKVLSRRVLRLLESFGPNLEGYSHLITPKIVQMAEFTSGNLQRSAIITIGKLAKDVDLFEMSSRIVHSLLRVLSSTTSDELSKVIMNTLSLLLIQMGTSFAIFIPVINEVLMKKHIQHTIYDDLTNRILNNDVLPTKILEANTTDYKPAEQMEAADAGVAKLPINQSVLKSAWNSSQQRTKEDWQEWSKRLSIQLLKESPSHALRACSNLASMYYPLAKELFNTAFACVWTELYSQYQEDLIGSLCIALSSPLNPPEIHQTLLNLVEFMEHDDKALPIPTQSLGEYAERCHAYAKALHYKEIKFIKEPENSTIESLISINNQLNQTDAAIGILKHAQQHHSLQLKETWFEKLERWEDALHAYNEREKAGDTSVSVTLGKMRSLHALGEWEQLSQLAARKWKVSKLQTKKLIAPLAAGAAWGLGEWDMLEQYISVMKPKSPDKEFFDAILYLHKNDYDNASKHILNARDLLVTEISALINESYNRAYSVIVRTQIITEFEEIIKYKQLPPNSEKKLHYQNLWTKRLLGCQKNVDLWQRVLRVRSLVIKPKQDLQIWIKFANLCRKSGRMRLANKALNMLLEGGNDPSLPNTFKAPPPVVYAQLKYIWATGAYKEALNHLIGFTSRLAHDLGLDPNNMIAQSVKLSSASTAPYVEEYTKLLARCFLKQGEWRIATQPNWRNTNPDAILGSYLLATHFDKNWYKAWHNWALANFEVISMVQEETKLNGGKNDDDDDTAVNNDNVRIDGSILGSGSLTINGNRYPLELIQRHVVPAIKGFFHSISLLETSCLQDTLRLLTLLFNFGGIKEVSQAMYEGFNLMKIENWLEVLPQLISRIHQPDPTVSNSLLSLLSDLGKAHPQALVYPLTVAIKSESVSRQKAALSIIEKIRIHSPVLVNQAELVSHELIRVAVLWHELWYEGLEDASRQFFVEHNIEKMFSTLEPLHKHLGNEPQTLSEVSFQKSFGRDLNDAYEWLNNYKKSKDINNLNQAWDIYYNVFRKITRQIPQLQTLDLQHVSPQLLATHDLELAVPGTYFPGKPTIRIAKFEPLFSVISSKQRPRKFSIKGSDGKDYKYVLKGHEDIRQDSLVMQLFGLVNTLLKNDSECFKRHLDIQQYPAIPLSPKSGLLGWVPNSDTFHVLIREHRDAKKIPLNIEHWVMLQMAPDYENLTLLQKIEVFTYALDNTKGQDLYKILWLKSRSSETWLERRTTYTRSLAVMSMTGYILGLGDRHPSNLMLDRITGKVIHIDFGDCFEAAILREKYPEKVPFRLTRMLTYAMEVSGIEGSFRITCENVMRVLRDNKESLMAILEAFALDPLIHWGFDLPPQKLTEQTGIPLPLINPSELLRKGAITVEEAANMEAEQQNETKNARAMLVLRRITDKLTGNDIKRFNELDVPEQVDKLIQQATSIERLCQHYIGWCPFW

The target of assay [1] is Kog1-FLAG (S. cerevisiae) (UniProt P38873). In words: affinity purification with mass spectrometry; Kog1-FLAG captured on anti-FLAG beads from lysate treated with the cleavable crosslinker DSP and 1% digitonin; mock IP from a Kog1-HA strain; 11 experiments in nine conditions (log phase, stress and starvation); crosslinks broken before mass ….
The next assay concerns the target T1, GFP-Ait1 (S. cerevisiae) (UniProt Q12301).
T1 sequence: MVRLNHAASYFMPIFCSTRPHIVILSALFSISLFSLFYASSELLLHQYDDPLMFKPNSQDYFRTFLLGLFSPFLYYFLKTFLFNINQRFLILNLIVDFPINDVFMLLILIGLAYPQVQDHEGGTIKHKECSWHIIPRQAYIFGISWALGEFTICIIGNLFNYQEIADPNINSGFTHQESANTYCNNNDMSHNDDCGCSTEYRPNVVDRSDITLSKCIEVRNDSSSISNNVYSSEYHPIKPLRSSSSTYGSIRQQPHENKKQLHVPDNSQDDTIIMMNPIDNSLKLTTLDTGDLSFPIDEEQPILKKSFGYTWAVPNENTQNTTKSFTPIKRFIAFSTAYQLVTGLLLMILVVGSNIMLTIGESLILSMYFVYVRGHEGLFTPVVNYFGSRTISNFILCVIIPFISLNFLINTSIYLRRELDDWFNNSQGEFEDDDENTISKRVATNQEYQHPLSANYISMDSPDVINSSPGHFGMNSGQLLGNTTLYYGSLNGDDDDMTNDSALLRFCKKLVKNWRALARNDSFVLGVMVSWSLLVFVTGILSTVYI
In words: affinity purification with mass spectrometry; GFP-Ait1 captured on anti-GFP beads from lysate treated with DSP crosslinker and digitonin, as for Kog1; four experiments.

Results are given in words; binding and its absence hold for the method and conditions named. Binding seen in cells or lysates may run through a third protein. These calls come from enrichment with a bait or labelling near it, and not all partners need be listed. For some of these results: Tags and fused reporters may be left off the sequences shown.

In the case of Tor1 (from UniProt P35169 1-2470), the binding entry (in assay [1]; with GFP-Ait1 (S. cerevisiae)) was “binds” each time.
Regarding Kog1 (from UniProt P38873 1-1557), the binding entry with GFP-Ait1 (S. cerevisiae) is recorded as “binds”.

B1: Ego1 (protein, UniProt Q02205 1-184)
chain: MGAVLSCCRNHSGEENEALLREQQAGYGSQGNANDEYDAEQMRLKEHEHEQKLLAREQELRDIVANTNDKLIDISMINNSGIVIQGTDLQEALDKRQQEEGGDSREDERSAGDDNLSGHSVPSSGSAQATTHQTAPRTNTFTLLTSPDSAKISKEQLKKLHSNILNEIFSQSQVNKPGPLTVPF
On to B1, for which the binding result in assay [1] is given as “binds”.

B2: Rtg2 (protein, UniProt P32608 1-588)
chain: MSTLSDSDTETEVVSRNLCGIVDIGSNGIRFSISSKAAHHARIMPCVFKDRVGLSLYEVQYNTHTNAKCPIPRDIIKEVCSAMKRFKLICDDFGVPETSVRVIATEATRDAINADEFVNAVYGSTGWKVEILGQEDETRVGIYGVVSSFNTVRGLYLDVAGGSTQLSWVISSHGEVKQSSKPVSLPYGAGTLLRRMRTDDNRALFYEIKEAYKDAIEKIGIPQEMIDDAKKEGGFDLWTRGGGLRGMGHLLLYQSEGYPIQTIINGYACTYEEFSSMSDYLFLKQKIPGSSKEHKIFKVSDRRALQLPAVGLFMSAVFEAIPQIKAVHFSEGGVREGSLYSLLPKEIRAQDPLLIASRPYAPLLTEKYLYLLRTSIPQEDIPEIVNERIAPALCNLAFVHASYPKELQPTAALHVATRGIIAGCHGLSHRARALIGIALCSRWGGNIPESEEKYSQELEQVVLREGDKAEALRIVWWTKYIGTIMYVICGVHPGGNIRDNVFDFHVSKRSEVETSLKELIIDDANTTKVKEESTRKNRGYEVVVRISKDDLKTSASVRSRIITLQKKVRKLSRGSVERVKIGVQFYEE
As for B2, the binding result in assay [1] is on record as “binds”.

B3: Npr2 (protein, UniProt P39923 1-615)
chain: MLSYFQGFVPIHTIFYSVFHPTEGSKIKYEFPPNNLKNHGINFNTFKNYIIPKPILCHKLITFKYGTYRIVCYPVTINSPIYARNFFSFNFVFVFPYDCETSPYEPAITRLGKMFKVLEEQNQLLSKSERDPVFFDLKVLENSTTTPSTAGPSSTPNPSSNTTPTHPTSEKDTKDMRSSRYSDLIKDLGLPQSAFSIQDLLMRIFQDLNNYSECLIPIDEGNAVDIKIFPLLRPPTTCVSLEDVPLSSVNLKKIIDVNWDPTMMSIVPYIDGLNSIAKISKLSNSDPGLVIECIRHLIYYKCVTLSDIFQFSNIYAPSSLIRNFLTDPLMASDCQSYVTFPEVSKISNLPLNKSLGSGDQDSPSFSVRRKSKSSSIPSNPDSRTTSFSSTSRVSQNSSLNSSFSSIYKDWRQSQTSCSSSNIHVINNRNRFLPTRSCLFDLYRSLSQGQTLKTWYESKYMILKENNIDIRRFITFGLEKRIIYRCYSFPVMINAGSREPKEMTPIITKDLVNNDKLLEKRNHNHLLSATGSRNTAQSGNLKPERPSKVSFEMQRVSSLATGKSTMPKLSDEEEGILEESIRNAETFDKICVLLSKPKLEVESYLNELGEFKVINS
On to B3, for which the binding result in assay [1] is on record as “binds”.

B4: Gtr2 (protein, UniProt P53290 1-341)
chain: MSLEATDSKAMVLLMGVRRCGKSSICKVVFHNMQPLDTLYLESTSNPSLEHFSTLIDLAVMELPGQLNYFEPSYDSERLFKSVGALVYVIDSQDEYINAITNLAMIIEYAYKVNPSINIEVLIHKVDGLSEDFKVDAQRDIMQRTGEELLELGLDGVQVSFYLTSIFDHSIYEAFSRIVQKLIPELSFLENMLDNLIQHSKIEKAFLFDVNSKIYVSTDSNPVDIQMYEVCSEFIDVTIDLFDLYKAPVLRNSQKSSDKDNVINPRNELQNVSQLANGVIIYLRQMIRGLALVAIIRPNGTDMESCLTVADYNIDIFKKGLEDIWANARASQAKNSIEDDV
Take B4: the binding entry in assay [1] is given as “binds”.

B5: Tco89 (protein, UniProt Q08921 1-799)
chain: MVHRGRTLKSDTDVTSLNASTVSHQSKPFRQFSTRSRAKSNASFKGLRRVLTHDGTLDNDYFNKHNVSQKCKSSDALFRKRTISGLNMTALTRVKSNQGKRSASFHSPVHNTLLSPKNSSHSNTGTAGFGLKPRRSKSTQSVLSLRDAQESKKSESTTDEEVECFSEDNIEDGKVNNDKVIAEHVMPEEKKNVQQLNQNELQSPDSIDEQEEDKSGTDGKENHRAVSLPLPHLSSNNYFGESSHSIEHQKDGETSPSSIETKLNATSVINEEGQSKVTKEADIDDLSSHSQNLRASLVKAGDNISEAPYDKEKKILDVGNTLAAHKSNQKPSHSDEQFDQEDHIDAPRSNSSRKSDSSFMSLRRQSSKQHKLLNEEEDLIKPDDISSAGTKDIEGHSLLENYAPNMILSQSTGVERRFENSSSIQNSLGNEIHDSGEHMASGDTFNELDDGKLRKSKKNGGRSQLGQNIPNSQSTFPTIANIGSKDNNVPQHNFSTSISSLTNNLRRAAPESFHGSRMNNIFHKKGNQNLLLRSNDLNKNSAAPASPLSNEHITSSTNSGSDANRQSNSGAKFNSFAQFLKSDGIDAESRTQRKLWLQRENSIMDLSSQNDGSDSIFMAGNIDAKREFERISHEYSNVKRFYNPLDEALLRVQPIITGNANNIRKKSHNDAQSIAHSSSDTDHKDEDDLLFTNYDKKFDDLYPHLASAKIQAVLSGIWKSESYLFNKDVNPINKNRTTSTNHSVGHTASQNARNLLRGPMGSSTTLHHQRVINSLQPTTRAVNRRMENVGYMHTQPQQR
Regarding B5, the binding result (in assay [1]; with GFP-Ait1 (S. cerevisiae)) was “binds” each time.

B6: GFP-Ait1 (natural protein, S. cerevisiae, UniProt Q12301 1-547, looked up)
chain: MVRLNHAASYFMPIFCSTRPHIVILSALFSISLFSLFYASSELLLHQYDDPLMFKPNSQDYFRTFLLGLFSPFLYYFLKTFLFNINQRFLILNLIVDFPINDVFMLLILIGLAYPQVQDHEGGTIKHKECSWHIIPRQAYIFGISWALGEFTICIIGNLFNYQEIADPNINSGFTHQESANTYCNNNDMSHNDDCGCSTEYRPNVVDRSDITLSKCIEVRNDSSSISNNVYSSEYHPIKPLRSSSSTYGSIRQQPHENKKQLHVPDNSQDDTIIMMNPIDNSLKLTTLDTGDLSFPIDEEQPILKKSFGYTWAVPNENTQNTTKSFTPIKRFIAFSTAYQLVTGLLLMILVVGSNIMLTIGESLILSMYFVYVRGHEGLFTPVVNYFGSRTISNFILCVIIPFISLNFLINTSIYLRRELDDWFNNSQGEFEDDDENTISKRVATNQEYQHPLSANYISMDSPDVINSSPGHFGMNSGQLLGNTTLYYGSLNGDDDDMTNDSALLRFCKKLVKNWRALARNDSFVLGVMVSWSLLVFVTGILSTVYI
notes: Ait1 (Ydl180w), GPCR-like protein of the vacuolar membrane, S. cerevisiae; The strain list is in Supplementary file 3; source: S. cerevisiae (W303) strain carrying GFP-Ait1, in lysate; not shown: GFP, N-terminal, kept
For the molecule B6, in assay [1], the binding entry is given as “binds”.
